From patent US12065471B2, “B*44 restricted peptides for use in immunotherapy against cancers and related methods” (Immatics Biotechnologies GmbH, priority 2018, dated 2024)

Test system: HLA molecules of primary tumor and normal tissue samples
Experiment: Identification and quantitation of tumor associated peptides presented on the cell surface (HLA immunoprecipitation, label-free LC-MS)
Parameters: species or system human
Conditions: HLA-B*44 positive normal (N=124) vs tumor samples (N=159), FIGS. 1A-1M

Row | Substance | over-presentation of peptide in cancer tissues (median MS signal intensities, detection frequency)
1 | AEALGAAKKL (listed as Homo sapiens) [SEQ ID NO: 4] | over-presentation
2 | MEHSDENIQFW (listed as Homo sapiens) [SEQ ID NO: 19] | over-presentation

Same assay, conditions: cancer entities on which the peptide was found presented (HLA immunoprecipitation, LC-MS); abbreviations in table footnotes

Row | Substance | Peptide Presentation on cancer entities
3 | 384 (LDGIPTAGW; listed as Homo sapiens) [compound 384] | CLL, NHL
4 | 134 (IEIKDRLQL; listed as Homo sapiens) [compound 134] | CLL
5 | 332 (SEADWLRFW; listed as Homo sapiens) [compound 332] | AML, BRCA, CCC, CLL, CRC, HCC, HNSCC, MEL, NHL, NSCLCadeno, NSCLCsquam, OC, OSCAR, PACA, PRCA, RCC, UBC, UEC
6 | 97 (ELVHMINW; listed as Homo sapiens) [compound 97] | BRCA
7 | 441 (QEVAQVASAIL; listed as Homo sapiens) [compound 441] | CCC, NSCLCsquam, UBC
8 | 271 (REDLVGPEV; listed as Homo sapiens) [compound 271] | CLL
9 | 429 (RETEDYSKQAL; listed as Homo sapiens) [compound 429] | CCC, NSCLCsquam
10 | 240 (MELQVSSGF; listed as Homo sapiens) [compound 240] | CLL
11 | 168 (EEGPSVPKIY; listed as Homo sapiens) [compound 168] | CLL, NHL
12 | 176 (GETQQHIQL; listed as Homo sapiens) [compound 176] | NSCLCsquam
13 | 100 (QGDVVDYSFY; listed as Homo sapiens) [compound 100] | AML
14 | 65 (SESMVESKF; listed as Homo sapiens) [compound 65] | MEL, NSCLCadeno
15 | 251 (DESADSEPHKY; listed as Homo sapiens) [compound 251] | NHL
16 | 171 (WEVVHTVF; listed as Homo sapiens) [compound 171] | GC, NSCLCsquam, OSCAR
17 | 295 (QELEQEVISL; listed as Homo sapiens) [compound 295] | CLL
18 | 303 (GEDAHLTQY; listed as Homo sapiens) [compound 303] | HNSCC, NSCLCsquam
19 | 334 (LEWQNSSSM; listed as Homo sapiens) [compound 334] | NHL
20 | 199 (AELPENLKALF; listed as Homo sapiens) [compound 199] | HNSCC
21 | 343 (SEFDLEQVW; listed as Homo sapiens) [compound 343] | HNSCC, NHL, NSCLCsquam
22 | 28 (QEFPAHSL; listed as Homo sapiens) [compound 28] | CLL
23 | 107 (YQENPRAAW; listed as Homo sapiens) [compound 107] | MEL, PACA
24 | 146 (MEELRMLSF; listed as Homo sapiens) [compound 146] | CLL
25 | 414 (AEGYLDLDGI; listed as Homo sapiens) [compound 414] | NSCLCadeno
26 | 302 (EGEDAHLTQY; listed as Homo sapiens) [compound 302] | NSCLCsquam

Row | Substance | Peptide Presentation on cancer entities
27 | 382 (SELNPLALY; listed as Homo sapiens) [compound 382] | HNSCC
28 | 294 (EEWEWIQKL; listed as Homo sapiens) [compound 294] | GBM, HCC, PACA, UEC
29 | 411 (AERDLNVTI; listed as Homo sapiens) [compound 411] | NSCLCadeno, PACA
30 | 20 (LEALLSDLF; listed as Homo sapiens) [compound 20] | BRCA, CRC, GC, NHL, NSCLCadeno, NSCLCsquam, OSCAR, UBC, UEC
31 | 416 (DELMRKESQW; listed as Homo sapiens) [compound 416] | CLL, CRC, MEL, NHL, NSCLCsquam, UBC, UEC
32 | 110 (EVEVGEVKSW; listed as Homo sapiens) [compound 110] | HCC
33 | 331 (KELEATKQYL; listed as Homo sapiens) [compound 331] | NSCLCsquam, OSCAR
34 | 439 (VEVGDRTDW; listed as Homo sapiens) [compound 439] | NHL
35 | 178 (MEGAALLKIF; listed as Homo sapiens) [compound 178] | PACA
36 | 269 (SEDLAVHL; listed as Homo sapiens) [compound 269] | CLL
37 | 407 (MEFQNTQSY; listed as Homo sapiens) [compound 407] | BRCA, CLL, GC, HNSCC, MEL, NHL, NSCLCadeno, NSCLCsquam, OSCAR
38 | 94 (SLAELIAKDW; listed as Homo sapiens) [compound 94] | CCC, HCC, UBC, UEC
39 | 1 (KEVDPASNTYTL; listed as Homo sapiens) [compound 1] | NSCLCsquam
40 | 351 (EEGRVYVY; listed as Homo sapiens) [compound 351] | GC, NSCLCsquam, OSCAR, PRCA
41 | 129 (EEAMKRLSY; listed as Homo sapiens) [compound 129] | HNSCC, OSCAR
42 | 156 (DAIPPPTLTW; listed as Homo sapiens) [compound 156] | UBC
43 | 378 (QELFLQEVRM; listed as Homo sapiens) [compound 378] | BRCA, CRC, HCC, HNSCC, MEL, NSCLCadeno, NSCLCsquam, OC, OSCAR, PRCA
44 | 281 (HEIPQESL; listed as Homo sapiens) [compound 281] | NSCLCsquam, OSCAR
45 | 179 (EEHIFSAF; listed as Homo sapiens) [compound 179] | NHL, NSCLCsquam, OSCAR
46 | 369 (KELEERMLHW; listed as Homo sapiens) [compound 369] | HNSCC, MEL, NHL, NSCLCadeno
47 | 115 (QEPFTRPVL; listed as Homo sapiens) [compound 115] | NSCLCsquam
48 | 353 (AETEEGIYW; listed as Homo sapiens) [compound 353] | HNSCC
49 | 68 (NEIDIHSIYF; listed as Homo sapiens) [compound 68] | OSCAR

Same assay, conditions: tumor tissue samples, LC-MS

Row | Substance | presentation on cancer entities
50 | EEFLRPRSL (listed as Homo sapiens) [SEQ ID NO: 2] | prostate cancer (PRCA)
